Literature values as cited in US12410474B2, “Methods, kits, and devices for diagnosing, prognosing, and treating psychiatric disorders in a patient” (Northwestern University, priority 2014, dated 2025).
Like-named read-outs stand apart in the source and are kept apart here. At least one compound was matched to its structure with a doubt left.

Columns and labels:
[1] = biological target: T1, HTR2C (Homo sapiens, UniProt P28335); conditions: HTR2C agonist
T1 sequence (P28335 33-458): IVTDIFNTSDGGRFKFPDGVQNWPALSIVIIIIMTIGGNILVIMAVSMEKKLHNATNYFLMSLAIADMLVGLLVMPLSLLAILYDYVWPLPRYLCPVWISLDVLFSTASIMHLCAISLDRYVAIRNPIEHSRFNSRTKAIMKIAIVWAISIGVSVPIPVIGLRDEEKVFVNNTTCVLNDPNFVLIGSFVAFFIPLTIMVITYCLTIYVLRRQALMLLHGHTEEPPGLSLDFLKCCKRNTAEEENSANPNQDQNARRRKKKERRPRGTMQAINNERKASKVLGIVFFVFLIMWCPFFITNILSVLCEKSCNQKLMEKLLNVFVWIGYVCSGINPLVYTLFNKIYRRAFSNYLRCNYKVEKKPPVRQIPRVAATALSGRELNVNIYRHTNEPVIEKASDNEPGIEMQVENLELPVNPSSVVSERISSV

[2] = tested on: schizophrenia patients; conditions: population risk Kp used for power calculation
[3] = tested on: schizophrenia patients; conditions: Clozapine only, rs6318

Row | Structure (SMILES) | antipsychotic effect [1] | prevalence of treatment responders in the schizophrenia population [2] [%] | Responder/Non-Responder ([3]; Arranz M J (2000), 200 subjects, Caucasian, 3 months, -330(GT)/-244(CT)) | Responder/Non-Responder ([3]; Malhotra A K (1996), 66 subjects, Caucasian, 2.5 months) | Responder/Non-Responder ([3]; Masellis M (1998), African-American, 6 months) | Responder/Non-Responder ([3]; Masellis M (1998), Caucasian, 6 months) | Responder/Non-Responder ([3]; Rietschel M (1997), 152 subjects, Caucasian, variable duration (Avg = 2.0 months)) | Responder/Non-Responder ([3]; Sodhi M S (1995), 162 subjects, Caucasian, 3 months)
1 | c1cc2c3c(c1)[C@H]1CCC[C@H]1CN3CCNC2 [vabicaserin] | demonstrated |  |  |  |  |  |  | 
2 | CN1CCN(C2=Nc3cc(Cl)ccc3Nc3ccccc32)CC1 [clozapine] |  | ~30 | 133/67 | 18/48 | Caucasian; 20/19 | 72/67 for | 110/42 | 103/59
